Test system: HLA molecules of primary tumor and normal tissue samples
Experiment: Identification and quantitation of tumor associated peptides presented on the cell surface (HLA immunoprecipitation, label-free LC-MS)
Parameters: species or system human
Conditions: cancer entities on which the peptide was found presented (HLA immunoprecipitation, LC-MS); abbreviations in table footnotes

| Substance | Peptide Presentation on cancer entities |
| --- | --- |
| 138 (KEAPNIVTL; listed as Homo sapiens) [compound 138] | BRCA |
| 142 (QELFLHPVL; listed as Homo sapiens) [compound 142] | NHL |
| 145 (EELRMLSF; listed as Homo sapiens) [compound 145] | CLL |
| 146 (MEELRMLSF; listed as Homo sapiens) [compound 146] | CLL |
| 147 (RMLSFQQMTW; listed as Homo sapiens) [compound 147] | NHL |
| 148 (KESDAGRYY; listed as Homo sapiens) [compound 148] | CLL, NHL |
| 149 (AETEPERHLG; listed as Homo sapiens) [compound 149] | CLL |
| 153 (IEIILLSGSL; listed as Homo sapiens) [compound 153] | PACA |
| 155 (TEDARHPESW; listed as Homo sapiens) [compound 155] | CLL, NHL |
| 156 (DAIPPPTLTW; listed as Homo sapiens) [compound 156] | UBC |
| 158 (VEEERYTGQW; listed as Homo sapiens) [compound 158] | UBC |
| 159 (EEVQDGKVI; listed as Homo sapiens) [compound 159] | CCC, HNSCC, NSCLCadeno, OSCAR, PACA |
| 160 (AEIATTGQLY; listed as Homo sapiens) [compound 160] | GBM, MEL |
| 162 (EAYDIELNKW; listed as Homo sapiens) [compound 162] | OSCAR, UBC |
| 164 (DEDGKIVGY; listed as Homo sapiens) [compound 164] | HCC |
| 165 (EEIEAHIAL; listed as Homo sapiens) [compound 165] | AML, CCC |

| Substance | Peptide Presentation on cancer entities |
| --- | --- |
| 166 (EEQDFINNRY; listed as Homo sapiens) [compound 166] | GBM |
| 167 (AETENRYCV; listed as Homo sapiens) [compound 167] | PACA |
| 168 (EEGPSVPKIY; listed as Homo sapiens) [compound 168] | CLL, NHL |
| 169 (KEHNSSVPWSS; listed as Homo sapiens) [compound 169] | RCC |
| 171 (WEVVHTVF; listed as Homo sapiens) [compound 171] | GC, NSCLCsquam, OSCAR |
| 172 (RENPGMFSW; listed as Homo sapiens) [compound 172] | MEL |
| 174 (DENDAGNLITF; listed as Homo sapiens) [compound 174] | OSCAR |
| 175 (NLKSPIPLW; listed as Homo sapiens) [compound 175] | GBM, MEL, PACA, UBC |
| 176 (GETQQHIQL; listed as Homo sapiens) [compound 176] | NSCLCsquam |
| 178 (MEGAALLKIF; listed as Homo sapiens) [compound 178] | PACA |
| 179 (EEHIFSAF; listed as Homo sapiens) [compound 179] | NHL, NSCLCsquam, OSCAR |
| 180 (EEHSSKLQTSL; listed as Homo sapiens) [compound 180] | UBC |
| 181 (HEVAQDDHL; listed as Homo sapiens) [compound 181] | UBC |
| 182 (EELHAALSEW; listed as Homo sapiens) [compound 182] | CRC, GBC, GC |
| 183 (KEMQVTISQQL; listed as Homo sapiens) [compound 183] | NSCLCadeno |
| 185 (TEANVQALF; listed as Homo sapiens) [compound 185] | CLL, NHL |

Reference: patent publication US12065471B2, “B*44 restricted peptides for use in immunotherapy against cancers and related methods” (Immatics Biotechnologies GmbH, priority 2018, dated 2024)
